Laboratory results taken from the supplement of paper PMC3334620.
The full ranking holds about 33,000 sequences; the median of “E-score (-0.5 to 0.5)” is about -0.016, and the highest 2% start at about 0.3. The list shows a part of the results.

Biological target: T1, Yer184c (UniProt P39961)
T1 sequence: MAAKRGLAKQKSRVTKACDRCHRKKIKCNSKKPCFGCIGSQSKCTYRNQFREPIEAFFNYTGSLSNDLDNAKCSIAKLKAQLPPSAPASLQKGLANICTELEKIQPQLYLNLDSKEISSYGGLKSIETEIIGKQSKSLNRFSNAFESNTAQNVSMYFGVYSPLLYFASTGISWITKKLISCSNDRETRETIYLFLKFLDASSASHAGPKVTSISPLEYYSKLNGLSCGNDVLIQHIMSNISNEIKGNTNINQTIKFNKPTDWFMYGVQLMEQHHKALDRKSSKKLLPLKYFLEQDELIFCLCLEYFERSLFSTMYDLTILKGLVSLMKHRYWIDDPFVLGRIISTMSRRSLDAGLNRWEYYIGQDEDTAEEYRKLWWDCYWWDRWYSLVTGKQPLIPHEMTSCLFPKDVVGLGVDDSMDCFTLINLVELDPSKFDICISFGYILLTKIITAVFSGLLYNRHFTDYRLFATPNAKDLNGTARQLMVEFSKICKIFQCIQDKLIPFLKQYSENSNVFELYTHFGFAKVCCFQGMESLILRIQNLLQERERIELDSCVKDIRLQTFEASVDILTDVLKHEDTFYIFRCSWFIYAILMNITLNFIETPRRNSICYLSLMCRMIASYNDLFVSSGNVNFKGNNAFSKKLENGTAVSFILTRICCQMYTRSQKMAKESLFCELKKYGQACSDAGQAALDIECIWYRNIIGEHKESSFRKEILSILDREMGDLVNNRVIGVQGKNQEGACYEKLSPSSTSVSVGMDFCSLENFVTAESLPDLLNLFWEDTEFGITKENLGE
Test: PBM E-score (8-mer binding enrichment) (E-score (-0.5 to 0.5)); higher = stronger / more preferred TF binding
Settings: protein concentration: 100 nM; construct: GST-full length
Summary of the method: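 Yeast transcription factors, full-length or as DNA-binding domains, were expressed with a GST tag using PURExpress in vitro transcription/translation. At about 100-200 nM they were applied to universal all-10-mer Agilent arrays, double-stranded by primer extension on fresh or once-stripped slides. Fluorescent anti-GST detected bound protein, and masliner normalised the scans. E-scores for ungapped eight-base words, pooled with reverse complements, came from the Universal PBM Analysis Suite.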

Sequence | PBM E-score
CAACAACC | 0.0302
CCTCTGAC | -0.149
CTAAGTTA | 0.0886
AAGATCAT | 0.0392
CGAGCCAC | -0.181
TCCTCAGA | -0.118
CGCGCAAG | 0.172
GATTAATA | 0.154
GGGGAATA | -0.0423
TAAAACAA | 0.196
ATAACGAC | -0.0981
CCAACGAC | -0.102
ACCAGACC | -0.0678
GAGAATTA | 0.104
ACCTCCGG | 0.357
AGAATCCA | -0.0487
CGACTCGC | -0.0662
GATTAGTA | 0.13
AAGATATT | 0.0795
GTATGTTA | 0.149
GTACCGTA | -0.0052
CTCTATCA | -0.183
GATTGGGC | -0.00977
GGAAAACA | 0.215
CAAACGTA | -0.0672

Individual results from the entries so far.
For PBM E-score, GTATGTTA shows 0.149
For PBM E-score, GGGGAATA shows -0.0423
For PBM E-score, CCTCTGAC shows -0.149

Next results

Sequence | PBM E-score
ACTGACCT | -0.102
AGGCTACC | -0.152
ATGTTTTG | 0.153
CAGTACGG | 0.0218
GCGTCAGC | -0.202
GCTTGCCC | -0.297
CGCTATAC | -0.232
GTCTCAGA | -0.128
CGATAAAC | -0.0667
AGGACAAA | 0.136
GCGCGATA | 0.109
TGCAGAAA | 0.155
GACCCTGA | -0.196
AAACCGCA | -0.059
CATCTATC | 0.0619
AGTAGGTG | -0.174
TCGGGACA | 0.0247
CCCGGTTC | 0.184
CACGTTCA | -0.0938
AAATTGCA | 0.117
ATTGAGTC | -0.0225
GTCTACGA | -0.2
AGTTGTCC | 0.0454
CGGAACGA | 0.306
GTCTAACA | -0.132

Sequence | PBM E-score
AGCTCCCC | -0.346
ACATATGT | -0.108
CGATCTGA | 0.0411
ACAGCGGC | -0.0827
ACGGTGTC | -0.0501
GACCGCTC | -0.153
CTCTCCAG | -0.398
AAACCCGT | -0.16
CCGGCTTA | 0.33
GATTCAGA | 0.0809
CCCTACAG | -0.327
ATCTTCAC | 0.111
ACGCTTCA | -0.278
CTATCAAC | 0.205
GCTTCCCA | -0.102
TTAATGAA | 0.23
CTATGCTA | 0.0813
AAAGCTTC | 0.108
ATATCGAT | 0.045
ATGTTGAC | -0.0122
CAGGGGGA | -0.42
GAGTCTAC | -0.121
CCTTGCGC | -0.193
CCTACACG | -0.269
CCAAAGGG | -0.126

Another view of some results above:
Sequence,PBM E-score
ACATATGT,-0.108
AAACCCGT,-0.16
ATATCGAT,0.045
CCAAAGGG,-0.126

The listing continues.

Sequence | PBM E-score
ACAGCAGA | 0.0464
GGACATCC | -0.13
CAACTCTC | -0.0693
CCAATCCC | -0.136
AAGTTAAC | 0.147
ACTATCTC | 0.0285
CGTATGTC | -0.0388
CAGTGCAA | 0.0537
GTTTCTAA | 0.177
TACACCCA | -0.0433
CAAATTTG | 0.167
GTTTACTA | 0.0747
GGCGTTTA | -0.0315
ATAAATTA | 0.316
CACCATAC | -0.114
GTTGACGA | -0.00808
ACCAGTCA | -0.0658
ACTGTACT | -0.276
ATAATAGG | 0.146
ATCATGTC | 0.067
CTCTATTA | -0.154
CAGAGGGG | -0.286
AAGGCTAG | -0.11
CGTTGGCC | 0.0758
ACCCTGTA | -0.103

Exported with tabs: entries from further up.
Sequence	PBM E-score
ATAATAGG	0.146
ATCATGTC	0.067

(next part)

Sequence | PBM E-score
CTATTTTA | 0.111
ATCGTTAA | 0.0348
CCAACAAG | -0.118
CCTGGTAC | -0.0559
AGTGGTCC | -0.0143
GTAATGTA | -0.154
CGTTACAG | -0.0144
GTTACACA | -0.0438
AGGGTTCA | -0.0808
AAGCACTC | -0.0537
GCGGAGCA | 0.0321
ACATCTTA | -0.0687
AATTTCAC | 0.0995
ACTCGTCT | 0.126
CGCATAGC | -0.222
ACGAAGAT | 0.119
ACACTGTC | -0.088
CCCACGAC | -0.199
TCGGGGAA | 0.088
CGGGTTAG | -0.175
CCAACTCC | 0.0474
AATTGAGC | -0.111
GAGTGAGC | -0.0659
CGAGGGAA | -0.041
CTATTGGC | -0.232

Sequence | PBM E-score
GGGAACAA | 0.158
AAGGTCAG | -0.139
AGTCCGCG | 0.0709
ATAGTGTA | 0.0783
GGGATACC | -0.156
CACAAGAA | 0.202
AAGCAAAC | 0.0902
AAGCTTCT | -0.0165
AGTTTTCA | 0.114
AGGATGGG | -0.248
ACGCGAGT | -0.0923
CATAGCAG | -0.293
GGTCGACA | -0.0692
AGATATAG | 0.0793
AGGTCTAG | -0.209
GATACCAC | 0.103
ACGAGCTC | 0.117
TGTCTGAA | 0.00762
ACCATTCC | 0.0171
ACGGACAG | 0.0127
GAGCCGGA | 0.328
AGCAAGGG | -0.0678
AAAGAACG | 0.0238
CTTTGTAA | 0.234
AACGTACC | -0.102

Sequence | PBM E-score
AGTAACCG | 0.117
CGTTGGAA | 0.0607
AACATTGC | -0.138
CCTCCCCA | -0.218
AACTCAGC | -0.0339
CGTAGGGA | -0.174
CAATGAAA | -0.0299
GGGATTAC | -0.128
GTCATCCA | -0.0903
ATTCGGCC | 0.292
TATGCATA | 0.0271
CTCAGAGA | -0.115
TGGTTAAA | 0.114
ACTTTCCA | -0.0203
CATTTAGA | 0.0616
CGCACATC | -0.149
CTCTCGTC | -0.101
AATGGCCG | 0.0612
ATATCGTG | 0.0974
AAGGAACA | 0.0625
GAAGTGCC | -0.00228
ACAGAGGG | -0.217
